{
  "source": "PubChem BioAssay AID540256",
  "about": "(National Center for Advancing Translational Sciences (NCATS), 2011)",
  "note": "Out of some 300,000 compounds screened, about 3,700 (1.2%) were called active. The shares of active, inactive and inconclusive entries below differ from those in the screen. Calls follow the shape of the full dose curve; tested in HEK293 cells. Where the call is inconclusive, the potency comes from a doubtful curve fit. Potency is read from the fitted curve at half-maximal effect.",
  "data": [
    {"experiment": "qHTS for Inhibitors of binding or entry into cells for Lassa Virus; also: nearly all actives have a fitted effect of over 50% in size", "settings": "Lassa virus pseudotype entry inhibition, cell reporter; series mostly up to 37.9 µM", "values": [
      {"smiles": "CCOC(=O)C1=C(CN2CCN(c3cc(C)ccc3C)CC2)NC(=O)NC1c1ccccc1", "note": "(centres undefined)", "Potency": "inconclusive: 35.5 µM [inhibitor, single point]"},
      {"smiles": "O=C(Nc1ccc(-c2nc3ccccc3s2)cc1)C1=COCCO1", "Potency": "active: 2 µM"},
      {"smiles": "CS(=O)(=O)c1ccc2nc(NC(=O)c3ccco3)sc2c1", "Potency": "inconclusive: 29.1 µM [inhibitor, single point]"},
      {"smiles": "COc1cc(OC)cc(C(=O)Nc2nnc(SCC(=O)NCc3ccco3)s2)c1", "Potency": "inconclusive: 7.94 µM [activator, partial curve, poor fit]"},
      {"smiles": "COc1ccccc1Oc1nc2c(C)cccn2c(=O)c1/C=C(\\C#N)c1nc2ccccc2[nH]1", "Potency": "inconclusive: 14.1 µM [activator, single point]"},
      {"smiles": "Clc1ccc(CN2CCCCCC2)cc1", "Potency": "inactive"},
      {"smiles": "CC(C)c1ccc(NC(=S)NCc2cccs2)cc1", "Potency": "inconclusive: 25.9 µM [activator, partial curve, poor fit]"},
      {"smiles": "O=C(CCC(=O)N(c1ccc(F)cc1)C(C(=O)NC1CCCC1)c1ccncc1)Nc1cccnc1", "note": "(centres undefined)", "Potency": "inactive"},
      {"smiles": "CCc1nc(NCC2CCCO2)c(C#N)c2c1COC(C)(C)C2", "note": "(centres undefined)", "Potency": "inconclusive: 1.83 µM [inhibitor, partial curve]"},
      {"smiles": "Cc1ccc(C2(c3ccc(C)cc3)NC(=O)N(Cc3c(C)noc3C)C2=O)cc1", "Potency": "inconclusive: 35.5 µM [inhibitor, single point]"},
      {"smiles": "COc1ccc(C2N(C(=O)c3ccccc3)CCN2C(=O)c2ccccc2)cc1", "Potency": "inconclusive: 4.61 µM [inhibitor, full curve, poor fit]"},
      {"smiles": "COc1cccc(OC)c1C(=O)Nc1nc(-c2ccccc2)cs1", "Potency": "inactive"},
      {"smiles": "CNC(=O)CSc1nnc(-c2ccco2)n1-c1ccc(C)cc1", "Potency": "inactive"},
      {"smiles": "Nc1nonc1C(=O)NCCNc1ncccc1[N+](=O)[O-]", "Potency": "inconclusive: 12.6 µM [activator, partial curve]"},
      {"smiles": "CC(=O)Nc1ccc(S(=O)(=O)NCCSCc2ccccc2Cl)cc1", "Potency": "inconclusive: 29.1 µM [inhibitor, single point]"},
      {"smiles": "Cc1ccc(C(C)C)c(OCC(=O)Nc2nc3c(s2)CCCC3)c1", "Potency": "active: 3.16 µM"},
      {"smiles": "O=C(Cc1coc2cc(O)ccc12)NNC(=O)c1cccs1", "Potency": "inactive"},
      {"smiles": "Cc1cc(SCC(=O)OCC(=O)NCc2ccc3c(c2)OCO3)c(C)cc1Br", "Potency": "inconclusive: 0.082 µM [inhibitor, full curve, poor fit]"},
      {"smiles": "COc1ccc(-c2cc(C(=O)N3CCN(c4ccccc4)CC3)c3ccccc3n2)cc1", "Potency": "inconclusive: 10 µM [inhibitor, partial curve, poor fit]"}
    ]}
  ]
}
